Laboratory results as given in patent publication US20250144177A1 (Katholieke Universiteit Leuven, priority 2022, published 2025).
Not every detail of the peptide structures is certain; ends, links or a residue may be inferred. No end group written: not given here.

Tests used:
S. aureus [1] = assay: S. aureus lung infection in mice: BALF cells, clinical score, lung function; assay type: in vivo, C57BL/6 mice; settings: S. aureus 10^8 CFU/mouse intranasal; 100 μl at 1 mg/ml i.v. 6 h or 12 h after challenge; 24 hours
S. aureus [2] = assay: Antibacterial effect on S. aureus culture; assay type: cell-based; settings: 0.09 μg/ml to 50 μg/ml added to culture
Klebsiella pneumoniae = assay: Pneumonia induced by Klebsiella pneumoniae: BALF leukocytes, cytokines, chemokines, protein and CFU counts; assay type: in vivo, C57BL/6J mice; settings: K. pneumoniae 1×10^6 CFU/mouse intratracheal; 100 μg/100 μL i.v. 6 hours after infection; 24 hours after infection; vs vehicle

In the case of “KKKQKNGKKHQKKKVLKVRKSQRSRQKKTT [CXCL9 (74-103)]”, the clinical score (S. aureus [1]) was “Improves”, the “inflammatory parameters (total leukocytes, neutrophils in BALF)” value (S. aureus [1]) was “Reduces” and the antibacterial effect (S. aureus [2]) was “No antibacterial effect”. For the same sequence, the “bacterial load (CFU) in the airways (BAL fluid)” value (Klebsiella pneumoniae) was “did not increase”, the “bacterial load (CFU) in the lung tissue” value (Klebsiella pneumoniae) was “did not increase” and the “levels of CXCL1 in BAL fluid” value (Klebsiella pneumoniae) was “no difference”. The “levels of CXCL2 in BAL fluid” value (Klebsiella pneumoniae) was “no difference”, the “levels of CXCL6 in BAL fluid” value (Klebsiella pneumoniae) was “no difference” and the “levels of IL-1β in BALF” value (Klebsiella pneumoniae) was “reduced”. The “number of neutrophils recruited to the airways (BALF)” value (Klebsiella pneumoniae) was “decreased”, the “number of total leukocytes recruited to the airways (BALF)” value (Klebsiella pneumoniae) was “decreased” and the “recruitment of mononuclear cells (BALF)” value (Klebsiella pneumoniae) was “did not affect”. The “total protein in BAL fluid” value (Klebsiella pneumoniae) was “no difference”.
